This is an account of results in PMC13336076.

By UniProt entry, the sequences of proteins in these tests, tags left out. Where a name states a change or a piece, a line headed by the entry shows the natural chain unless it says otherwise. Chains listed by the source or under a name are the forms on record and can include a tag or linker. Residues count along the entry.
UniProt Q921F2: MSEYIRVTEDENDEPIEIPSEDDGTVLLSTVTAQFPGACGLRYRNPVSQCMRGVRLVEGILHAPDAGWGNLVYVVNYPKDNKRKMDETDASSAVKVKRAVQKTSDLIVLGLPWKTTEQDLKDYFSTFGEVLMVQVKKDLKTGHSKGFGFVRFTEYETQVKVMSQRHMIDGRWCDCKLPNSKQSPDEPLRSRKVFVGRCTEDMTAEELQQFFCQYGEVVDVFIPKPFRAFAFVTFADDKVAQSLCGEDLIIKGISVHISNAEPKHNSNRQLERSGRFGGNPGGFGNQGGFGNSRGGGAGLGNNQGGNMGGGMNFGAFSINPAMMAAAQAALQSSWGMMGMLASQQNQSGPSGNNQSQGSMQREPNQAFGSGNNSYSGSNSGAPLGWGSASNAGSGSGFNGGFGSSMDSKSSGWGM
HA‐tagged wild‐type PDI in N2a cells (P07237, residues 18-508): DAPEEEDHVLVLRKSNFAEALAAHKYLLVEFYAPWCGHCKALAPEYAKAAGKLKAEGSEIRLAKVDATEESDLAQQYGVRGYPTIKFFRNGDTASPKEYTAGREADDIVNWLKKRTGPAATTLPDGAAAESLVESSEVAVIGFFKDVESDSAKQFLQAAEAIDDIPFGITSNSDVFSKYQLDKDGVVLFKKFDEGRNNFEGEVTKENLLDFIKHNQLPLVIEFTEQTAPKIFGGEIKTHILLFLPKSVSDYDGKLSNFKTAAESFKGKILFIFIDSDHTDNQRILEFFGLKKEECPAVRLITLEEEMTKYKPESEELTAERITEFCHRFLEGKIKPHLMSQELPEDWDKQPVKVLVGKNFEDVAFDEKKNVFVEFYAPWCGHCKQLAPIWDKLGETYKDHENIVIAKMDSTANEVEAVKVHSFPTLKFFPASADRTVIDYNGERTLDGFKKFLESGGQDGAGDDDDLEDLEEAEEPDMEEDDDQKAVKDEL
HA‐tagged dnPDI in N2a cells (P07237, form named): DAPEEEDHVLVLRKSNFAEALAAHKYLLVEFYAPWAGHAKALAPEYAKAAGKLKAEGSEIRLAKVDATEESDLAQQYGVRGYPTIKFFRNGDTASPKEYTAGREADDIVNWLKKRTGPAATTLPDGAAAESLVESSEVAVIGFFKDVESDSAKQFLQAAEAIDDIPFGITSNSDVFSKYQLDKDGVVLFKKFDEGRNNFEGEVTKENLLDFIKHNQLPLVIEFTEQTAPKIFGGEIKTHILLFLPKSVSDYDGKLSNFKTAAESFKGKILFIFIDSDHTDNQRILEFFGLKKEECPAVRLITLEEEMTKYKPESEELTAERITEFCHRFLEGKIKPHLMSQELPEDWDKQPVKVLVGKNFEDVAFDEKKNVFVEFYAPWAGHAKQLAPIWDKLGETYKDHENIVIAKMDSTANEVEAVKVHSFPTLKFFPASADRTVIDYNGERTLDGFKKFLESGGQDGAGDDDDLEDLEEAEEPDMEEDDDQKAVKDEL

These are yes or no findings as the source states them, for the method shown. In cells and extracts the contact can be indirect. Some binding calls cover weakened binding; strength is not graded here.

The test addresses endogenous TDP‐43 of N2a cells (mouse (endogenous in N2a)) (UniProt Q921F2). The experiment in a line: co-IP; N2a cells transfected with HA‐tagged PDI forms, 1 mM H2O2 for 1 h; endogenous TDP‐43 precipitated with anti‐TDP‐43 antibody beads, blot with anti‐HA.

Turning to “HA‐tagged dnPDI in N2a cells (from UniProt P07237 18-508) (enzyme)”, the binding result was “binds”. Next, “HA‐tagged wild‐type PDI in N2a cells (from UniProt P07237 18-508) (enzyme)”: “binds”.
